Measurements reported in PubChem BioAssay AID686937 (Drosophila RNAi Screening Center, 2013)

Aim: 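Genes in the fly needed for secretion of protein constitutively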 (primary screen)
Cell system: Drosophila S2 cells expressing secreted horseradish peroxidase
Reagents: long dsRNA against Drosophila genes
Duration: about 5.5 days (5 days dsRNA, then 12 h reporter induction)
Challenge: reporter expression induced after 5 days of dsRNA, read 12 h later; inducer not stated
Detection: 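After 5 days of dsRNA and 12 h of reporter induction, medium peroxidase read by chemiluminescence and scored as per-plate z-score; higher values mean more reporter released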
Reading the numbers: z-score: higher = more reporter secreted into medium
In all, the deposit lists about 23,000 reagents; below is an unselected part of those that have a named target and a result. 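Reduced-secretion tags in replicate 1 do not always agree with the z-scores; no criterion for assigning the tags was given.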 Further read-outs or replicates are left out here. No sequences are given here. The record does not give: the amount of reagent.

predicted target	amplicon	z-score, replicate 1	z-score, replicate 2	z-score, replicate 3
Dronc (GeneID 39173)	DRSC11231	0.25	0.28	
COX5BL (GeneID 33919)	DRSC02123	0.08	0.41	
Cyp4e3 (GeneID 34291)	DRSC03306	0.29	0.19	
SmydA-4 (GeneID 32034)	DRSC19390	0.12	0.25	0.69
SmydA-4 (GeneID 32034)	DRSC21866	0.74	-0.08	
mEFTs (GeneID 35060)	DRSC02953	0.02	-0.18	
Pdk (GeneID 35970)	DRSC07504	0.42	0.33	
ca (GeneID 43518)	DRSC15305	0.38	0.38	
ca (GeneID 43518)	DRSC15306	0.25	0.4	
ca (GeneID 43518)	DRSC16314	0.19	0.05	
CG13631 (GeneID 50073)	DRSC14632	0.16	0.32	
CG1421 (GeneID 35432)	DRSC03707	-0.05	0.26	
CG13324 (GeneID 36434)	DRSC06361	0.04	-0.2	
CG5504 (GeneID 48844)	DRSC04701	0.25	0.23	
Cpr97Eb (GeneID 43259)	DRSC15123	0.38	-0.01	
LTV1 (GeneID 36146)	DRSC05951	0.18	-0.1	
spo (GeneID 38631)	DRSC11127	0.13	-0.13	
CG13339 (GeneID 36528)	DRSC06373	0.16	0.32	
PIG-G (GeneID 35685)	DRSC06823	0.14	0.33	
Syt12 (GeneID 32290)	DRSC19359	0.28	0.58	
CG32767 (GeneID 31430)	DRSC18386	-0.13	-1.23	
CG13044 (GeneID 39795)	DRSC09925	-0.02	0.38	

Copied from the list:
For “z-score, replicate 1”, ca (GeneID 43518) [DRSC16314] shows 0.19
For “z-score, replicate 1”, LTV1 (GeneID 36146) [DRSC05951] shows 0.18
Result of Dronc (GeneID 39173) [DRSC11231] in “z-score, replicate 1”: 0.25

The listing continues:
predicted target	amplicon	z-score, replicate 1	z-score, replicate 2	z-score, replicate 3
Mettl14 (GeneID 34138)	DRSC03073	0.32	0.12	
thoc6 (GeneID 39394)	DRSC10528	0.03	0.15	
CG42792 (GeneID 10178946)	DRSC01515	0.11	-0.08	
Gr64f (GeneID 117477)	DRSC08447	0.32	0.13	
CG10513 (GeneID 43051)	DRSC14248	-0.47	-0.28	
Nph (GeneID 43559)	DRSC16342	0	0.25	
CG13801 (GeneID 38299)	DRSC08335	0.27	0.34	
CG12895 (GeneID 36103)	DRSC06210	0.28	0.26	
Ugt49B2 (GeneID 42538)	DRSC16049	0.23	0.14	
Pdha (GeneID 31406)	DRSC18413	0.25	0.22	
CheB93b (GeneID 318736)	DRSC21762	0.58	0.07	
